According to the supplement of paper PMC10849652:
This is one part of the list.

Protein sequences, listed by entry. Tags and fused reporters are not part of them. Lines headed by an entry give the natural chain unless they say otherwise; changes in a name come on top.
UniProt P22352, whole entry, looked up: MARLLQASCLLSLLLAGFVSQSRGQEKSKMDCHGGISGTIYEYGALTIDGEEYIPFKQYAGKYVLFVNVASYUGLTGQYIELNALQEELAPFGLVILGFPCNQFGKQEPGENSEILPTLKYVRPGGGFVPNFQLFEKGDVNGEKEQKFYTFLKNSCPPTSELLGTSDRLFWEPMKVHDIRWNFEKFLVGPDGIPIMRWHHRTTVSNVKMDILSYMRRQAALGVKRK
UniProt Q9NVN8: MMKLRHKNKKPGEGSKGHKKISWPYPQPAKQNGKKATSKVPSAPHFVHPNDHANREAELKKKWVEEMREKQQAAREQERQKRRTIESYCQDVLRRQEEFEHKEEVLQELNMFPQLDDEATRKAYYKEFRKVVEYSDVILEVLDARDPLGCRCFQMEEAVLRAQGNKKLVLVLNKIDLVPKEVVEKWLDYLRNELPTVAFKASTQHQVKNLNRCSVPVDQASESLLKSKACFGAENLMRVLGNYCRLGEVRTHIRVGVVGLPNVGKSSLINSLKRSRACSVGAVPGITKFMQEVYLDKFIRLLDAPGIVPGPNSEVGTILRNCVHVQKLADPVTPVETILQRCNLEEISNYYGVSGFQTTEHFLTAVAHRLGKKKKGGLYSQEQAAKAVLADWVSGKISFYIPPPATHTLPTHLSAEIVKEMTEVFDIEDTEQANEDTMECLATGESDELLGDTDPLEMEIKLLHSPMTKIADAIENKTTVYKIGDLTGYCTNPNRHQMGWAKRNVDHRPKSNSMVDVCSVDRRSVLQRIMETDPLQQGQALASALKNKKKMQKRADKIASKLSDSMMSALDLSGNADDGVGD
UniProt Q9HCN6: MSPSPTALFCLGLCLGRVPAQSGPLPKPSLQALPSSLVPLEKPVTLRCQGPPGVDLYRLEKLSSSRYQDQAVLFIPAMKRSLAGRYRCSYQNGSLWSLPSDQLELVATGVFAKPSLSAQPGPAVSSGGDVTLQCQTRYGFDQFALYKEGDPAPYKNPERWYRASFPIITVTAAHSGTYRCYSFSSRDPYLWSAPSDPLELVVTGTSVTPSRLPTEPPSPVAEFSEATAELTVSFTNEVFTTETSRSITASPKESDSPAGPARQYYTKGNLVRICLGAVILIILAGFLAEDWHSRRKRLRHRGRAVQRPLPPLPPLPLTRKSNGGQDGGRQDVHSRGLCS
UniProt Q53EU6: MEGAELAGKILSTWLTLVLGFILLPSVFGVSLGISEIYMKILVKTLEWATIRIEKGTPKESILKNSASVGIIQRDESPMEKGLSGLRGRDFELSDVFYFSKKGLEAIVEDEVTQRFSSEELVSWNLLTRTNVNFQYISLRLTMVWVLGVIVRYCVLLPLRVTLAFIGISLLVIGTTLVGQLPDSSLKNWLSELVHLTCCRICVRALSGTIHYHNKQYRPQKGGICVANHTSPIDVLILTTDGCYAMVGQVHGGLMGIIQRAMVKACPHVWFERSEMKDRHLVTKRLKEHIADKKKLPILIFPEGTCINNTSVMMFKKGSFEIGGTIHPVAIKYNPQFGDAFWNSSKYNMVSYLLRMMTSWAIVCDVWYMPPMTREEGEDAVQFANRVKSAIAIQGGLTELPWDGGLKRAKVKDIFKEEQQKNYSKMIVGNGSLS
UniProt Q14956: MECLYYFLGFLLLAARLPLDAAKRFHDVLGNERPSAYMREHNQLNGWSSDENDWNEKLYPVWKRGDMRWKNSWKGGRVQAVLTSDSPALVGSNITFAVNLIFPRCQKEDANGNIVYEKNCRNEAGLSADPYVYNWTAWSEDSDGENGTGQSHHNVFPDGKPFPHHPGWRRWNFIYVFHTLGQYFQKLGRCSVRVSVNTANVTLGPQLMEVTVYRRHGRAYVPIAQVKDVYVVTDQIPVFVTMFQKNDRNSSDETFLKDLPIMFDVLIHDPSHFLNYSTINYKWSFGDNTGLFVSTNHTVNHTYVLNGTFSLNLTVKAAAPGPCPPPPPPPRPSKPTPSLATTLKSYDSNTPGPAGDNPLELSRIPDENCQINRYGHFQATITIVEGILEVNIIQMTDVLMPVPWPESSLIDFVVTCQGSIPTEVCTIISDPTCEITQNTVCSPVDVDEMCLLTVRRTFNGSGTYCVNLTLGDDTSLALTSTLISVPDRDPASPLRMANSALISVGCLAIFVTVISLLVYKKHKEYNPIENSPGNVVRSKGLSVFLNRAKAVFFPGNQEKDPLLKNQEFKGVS
UniProt Q9NPR9: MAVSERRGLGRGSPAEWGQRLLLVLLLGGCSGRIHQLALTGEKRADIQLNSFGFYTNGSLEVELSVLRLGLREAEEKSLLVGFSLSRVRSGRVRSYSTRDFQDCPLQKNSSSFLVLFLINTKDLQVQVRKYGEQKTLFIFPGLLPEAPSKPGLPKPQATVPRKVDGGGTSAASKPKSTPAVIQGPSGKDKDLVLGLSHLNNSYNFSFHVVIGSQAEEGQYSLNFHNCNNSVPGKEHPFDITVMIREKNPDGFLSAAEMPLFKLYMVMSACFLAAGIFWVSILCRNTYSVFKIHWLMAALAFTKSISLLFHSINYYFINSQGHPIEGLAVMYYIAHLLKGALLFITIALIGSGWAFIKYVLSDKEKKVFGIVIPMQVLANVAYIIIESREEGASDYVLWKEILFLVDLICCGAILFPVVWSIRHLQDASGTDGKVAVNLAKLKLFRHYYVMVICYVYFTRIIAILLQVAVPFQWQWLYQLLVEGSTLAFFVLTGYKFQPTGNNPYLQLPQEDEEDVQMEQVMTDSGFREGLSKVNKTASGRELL
UniProt Q9UBI6: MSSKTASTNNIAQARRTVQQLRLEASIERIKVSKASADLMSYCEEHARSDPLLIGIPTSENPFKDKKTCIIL
UniProt Q92805: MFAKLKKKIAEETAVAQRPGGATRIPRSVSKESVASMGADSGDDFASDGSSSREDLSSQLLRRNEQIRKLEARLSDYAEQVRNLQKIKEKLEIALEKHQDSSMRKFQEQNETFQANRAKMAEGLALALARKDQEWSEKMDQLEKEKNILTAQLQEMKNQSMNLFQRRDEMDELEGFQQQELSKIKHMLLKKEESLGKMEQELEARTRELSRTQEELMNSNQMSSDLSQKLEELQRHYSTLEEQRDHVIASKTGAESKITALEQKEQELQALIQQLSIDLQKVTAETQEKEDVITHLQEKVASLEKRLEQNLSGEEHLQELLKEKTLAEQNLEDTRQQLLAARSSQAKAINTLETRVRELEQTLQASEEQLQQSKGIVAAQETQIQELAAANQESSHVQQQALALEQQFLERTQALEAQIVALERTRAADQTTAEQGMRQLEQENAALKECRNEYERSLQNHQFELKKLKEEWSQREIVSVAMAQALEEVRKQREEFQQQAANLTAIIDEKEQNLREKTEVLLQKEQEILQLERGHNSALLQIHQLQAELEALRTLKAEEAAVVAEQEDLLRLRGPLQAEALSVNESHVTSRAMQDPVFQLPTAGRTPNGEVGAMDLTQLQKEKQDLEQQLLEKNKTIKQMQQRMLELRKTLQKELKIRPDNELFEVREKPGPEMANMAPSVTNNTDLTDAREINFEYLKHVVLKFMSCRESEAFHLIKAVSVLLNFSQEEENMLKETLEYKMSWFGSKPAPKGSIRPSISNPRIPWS
UniProt Q3T8J9: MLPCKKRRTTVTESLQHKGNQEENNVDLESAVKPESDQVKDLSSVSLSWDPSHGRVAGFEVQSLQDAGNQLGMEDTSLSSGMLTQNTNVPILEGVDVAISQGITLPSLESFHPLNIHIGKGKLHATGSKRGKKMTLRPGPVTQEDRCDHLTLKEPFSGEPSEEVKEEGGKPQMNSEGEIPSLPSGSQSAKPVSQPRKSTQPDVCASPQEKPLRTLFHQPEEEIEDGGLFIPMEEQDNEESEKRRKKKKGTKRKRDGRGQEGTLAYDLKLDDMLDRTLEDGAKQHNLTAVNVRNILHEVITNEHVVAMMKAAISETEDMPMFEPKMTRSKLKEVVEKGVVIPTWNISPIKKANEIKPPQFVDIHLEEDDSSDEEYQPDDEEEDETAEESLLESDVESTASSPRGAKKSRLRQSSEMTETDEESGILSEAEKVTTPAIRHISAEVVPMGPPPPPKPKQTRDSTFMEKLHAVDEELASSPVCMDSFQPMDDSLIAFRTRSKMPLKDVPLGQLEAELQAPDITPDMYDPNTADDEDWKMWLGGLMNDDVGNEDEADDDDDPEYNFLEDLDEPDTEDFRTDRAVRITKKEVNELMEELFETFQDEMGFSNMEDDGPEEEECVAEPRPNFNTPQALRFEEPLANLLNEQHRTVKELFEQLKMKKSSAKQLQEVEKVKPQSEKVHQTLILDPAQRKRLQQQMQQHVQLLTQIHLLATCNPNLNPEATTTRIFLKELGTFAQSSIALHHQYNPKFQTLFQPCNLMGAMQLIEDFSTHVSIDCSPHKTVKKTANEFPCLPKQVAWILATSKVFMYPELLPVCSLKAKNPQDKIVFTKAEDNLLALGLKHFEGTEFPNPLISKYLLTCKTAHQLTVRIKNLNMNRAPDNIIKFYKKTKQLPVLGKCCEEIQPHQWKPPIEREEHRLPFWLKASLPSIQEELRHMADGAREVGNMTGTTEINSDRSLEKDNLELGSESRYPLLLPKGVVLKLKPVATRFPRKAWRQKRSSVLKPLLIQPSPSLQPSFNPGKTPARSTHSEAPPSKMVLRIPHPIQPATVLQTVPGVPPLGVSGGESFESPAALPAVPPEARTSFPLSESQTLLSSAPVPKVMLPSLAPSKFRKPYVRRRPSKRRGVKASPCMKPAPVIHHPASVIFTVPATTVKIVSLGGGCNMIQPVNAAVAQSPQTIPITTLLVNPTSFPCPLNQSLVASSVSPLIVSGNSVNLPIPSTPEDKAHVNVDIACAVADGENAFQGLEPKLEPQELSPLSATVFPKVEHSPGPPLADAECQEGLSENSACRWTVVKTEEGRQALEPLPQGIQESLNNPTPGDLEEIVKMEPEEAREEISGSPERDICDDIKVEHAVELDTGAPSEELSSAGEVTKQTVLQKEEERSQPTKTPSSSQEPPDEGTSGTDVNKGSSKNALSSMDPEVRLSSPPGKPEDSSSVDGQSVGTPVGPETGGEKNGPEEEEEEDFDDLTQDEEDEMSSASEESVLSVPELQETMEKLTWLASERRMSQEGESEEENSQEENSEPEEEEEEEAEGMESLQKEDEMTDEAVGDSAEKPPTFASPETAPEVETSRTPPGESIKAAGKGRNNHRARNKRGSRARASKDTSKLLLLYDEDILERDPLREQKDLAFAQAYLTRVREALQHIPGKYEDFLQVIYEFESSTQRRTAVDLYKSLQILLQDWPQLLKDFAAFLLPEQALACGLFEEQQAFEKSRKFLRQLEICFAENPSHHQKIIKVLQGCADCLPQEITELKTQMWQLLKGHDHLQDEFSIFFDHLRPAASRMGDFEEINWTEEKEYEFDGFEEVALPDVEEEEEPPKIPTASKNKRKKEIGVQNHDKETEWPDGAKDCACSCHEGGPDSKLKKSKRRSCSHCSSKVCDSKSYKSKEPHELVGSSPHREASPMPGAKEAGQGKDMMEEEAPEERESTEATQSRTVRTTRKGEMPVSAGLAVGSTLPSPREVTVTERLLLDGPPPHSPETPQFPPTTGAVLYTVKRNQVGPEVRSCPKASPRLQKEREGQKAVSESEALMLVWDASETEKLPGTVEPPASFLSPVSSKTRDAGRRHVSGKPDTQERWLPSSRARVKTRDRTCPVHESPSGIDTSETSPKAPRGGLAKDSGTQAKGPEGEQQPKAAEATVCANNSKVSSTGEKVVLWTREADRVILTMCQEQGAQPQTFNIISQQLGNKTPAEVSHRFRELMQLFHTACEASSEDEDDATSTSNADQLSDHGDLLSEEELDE
UniProt Q14161: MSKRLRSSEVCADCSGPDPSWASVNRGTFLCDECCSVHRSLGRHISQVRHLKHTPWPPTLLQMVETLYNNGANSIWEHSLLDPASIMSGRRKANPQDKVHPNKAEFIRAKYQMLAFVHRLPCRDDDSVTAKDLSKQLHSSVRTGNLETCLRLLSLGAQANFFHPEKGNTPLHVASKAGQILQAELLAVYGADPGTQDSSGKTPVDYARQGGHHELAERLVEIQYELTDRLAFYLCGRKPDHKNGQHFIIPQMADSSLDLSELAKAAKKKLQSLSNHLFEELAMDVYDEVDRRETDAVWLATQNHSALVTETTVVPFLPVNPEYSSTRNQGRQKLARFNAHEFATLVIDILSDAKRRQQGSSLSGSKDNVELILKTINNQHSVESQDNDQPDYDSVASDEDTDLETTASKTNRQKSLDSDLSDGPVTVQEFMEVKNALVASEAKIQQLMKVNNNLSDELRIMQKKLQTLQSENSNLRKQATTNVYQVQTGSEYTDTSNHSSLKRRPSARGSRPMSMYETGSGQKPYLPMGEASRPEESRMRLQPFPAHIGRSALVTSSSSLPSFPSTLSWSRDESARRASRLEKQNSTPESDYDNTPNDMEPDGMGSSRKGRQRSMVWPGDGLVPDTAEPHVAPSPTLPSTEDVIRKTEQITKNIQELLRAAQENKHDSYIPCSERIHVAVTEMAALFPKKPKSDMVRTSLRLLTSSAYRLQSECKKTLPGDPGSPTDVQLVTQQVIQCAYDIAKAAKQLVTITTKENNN

Assays:
Assay in all cases: log2 fold change, soluble protein after heating vs DMSO (PISA); higher = thermal stabilisation; K562 cells, 10 uM, 30 min; active = over 0.2 and 3.5 SD of the protein, either way, in both replicates (recomputed)
bafetinib = compound: Cc1ccc(NC(=O)c2ccc(CN3CC[C@H](N(C)C)C3)c(C(F)(F)F)c2)cc1Nc1nccc(-c2cncnc2)n1 [bafetinib]
Method in brief: (§1)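 K562 cells at 2×10^6 cells/mL were treated for 30 min with 10 μM compound, and aliquots were heated for 3 min over 48°C-58°C before pooling. Extraction used PBS with 0.5% NP-40 at 4°C, and soluble protein was the supernatant after 21,000xg for 90 min, measured by TMTpro 16plex LC-MS/MS with channel sums equalised. Thermal stability values, relative to control samples and from duplicates, are log2 fold changes.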

nilotinib = compound: Cc1cn(-c2cc(NC(=O)c3ccc(C)c(Nc4nccc(-c5cccnc5)n4)c3)cc(C(F)(F)F)c2)cn1 [nilotinib]
Method in brief: as §1

[1] = compound: Cc1nc(Nc2n[nH]c3c2CN(C(=O)N[C@H](CN(C)C)c2ccccc2)C3(C)C)c2sccc2n1
Method in brief: as §1

dasatinib = compound: Cc1nc(Nc2ncc(C(=O)Nc3c(C)cccc3Cl)s2)cc(N2CCN(CCO)CC2)n1 [dasatinib]
Method in brief: as §1

[2] = compound: Cc1ncc(-c2ccnc(Nc3ccc(S(C)(=O)=O)cc3)n2)n1C(C)C
Method in brief: as §1

[3] = compound: Cn1cc(-c2ccc3c(c2)CCN3C(=O)Cc2cccc(C(F)(F)F)c2)c2c(N)ncnc21
Method in brief: as §1

[4] = compound: Cn1cc(-c2ccc3nnc(C(F)(F)c4ccc5ncccc5c4)n3n2)cn1
Method in brief: as §1

tipifarnib = compound: Cn1cncc1[C@@](N)(c1ccc(Cl)cc1)c1ccc2c(c1)c(-c1cccc(Cl)c1)cc(=O)n2C [tipifarnib]
Method in brief: as §1

mubritinib = compound: FC(F)(F)c1ccc(/C=C/c2nc(COc3ccc(CCCCn4ccnn4)cc3)co2)cc1 [mubritinib]
Method in brief: as §1

[5] = compound: NC(=O)Nc1cc(-c2cccc(F)c2)sc1C(=O)N[C@H]1CCCNC1
Method in brief: as §1

[6] = compound: NC(=O)c1cnc(N[C@@H]2CCCC[C@@H]2N)nc1Nc1cccc(-n2nccn2)c1
Method in brief: as §1

[7] = compound: NC1(c2ccc(-c3nc4ccn5c(=O)[nH]nc5c4cc3-c3ccccc3)cc2)CCC1
Method in brief: as §1

[8] = compound: NCC(=O)Nc1ccc(-n2nc(C(F)(F)F)cc2-c2ccc3c(ccc4ccccc43)c2)cc1
Method in brief: as §1

entinostat = compound: Nc1ccccc1NC(=O)c1ccc(CNC(=O)OCc2cccnc2)cc1 [entinostat]
Method in brief: as §1

citarinostat = compound: O=C(CCCCCCNC(=O)c1cnc(N(c2ccccc2)c2ccccc2Cl)nc1)NO [citarinostat]
Method in brief: as §1

silmitasertib = compound: O=C(O)c1ccc2c(c1)nc(Nc1cccc(Cl)c1)c1ccncc12 [silmitasertib]
Method in brief: as §1

[9] = compound: c1cc(OCCN2CCCCC2)cc(-c2n[nH]c3ccc(-c4nnc[nH]4)cc23)c1
Method in brief: as §1

[10] = compound: O=C1NC(=O)C(c2cnc3ccccn23)=C1c1cn2c3c(cc(F)cc13)CN(C(=O)N1CCCCC1)CC2
Method in brief: as §1

[11] = compound: Cc1cccc(CC(=O)N2CCc3c2ccc(-c2cn(C)c4ncnc(N)c24)c3F)n1
Method in brief: as §1

vorinostat = compound: O=C(CCCCCCC(=O)Nc1ccccc1)NO [vorinostat]
Method in brief: as §1

Measured: log2 fold change

GOLGA7B (UniProt Q2TAP0)
inactive: bafetinib -0.044 | nilotinib -0.012 | [1] -0.021 | dasatinib 0.067 | [2] 0.054 | [3] -0.002 | [4] 0.054 | tipifarnib -0.029 | mubritinib 0.052 | [5] -0.04 | [6] 0.064 | [7] -0.056 | [8] -0.014 | entinostat -0.069 | citarinostat -0.089 | silmitasertib 0.062 | [9] 0.658

GPX3 (UniProt P22352)
inactive: bafetinib -0.008 | dasatinib 0.039 | [3] 0.182 | [4] 0.038 | tipifarnib 0.148 | [6] 0.073 | [8] -0.043 | citarinostat 0.009 | [10] 0.037 | [9] 0.114

GSDME (UniProt O60443)
inactive: dasatinib 0.049 | citarinostat 0.036 | [10] -0.209 | [9] -0.089

GPC4 (UniProt O75487)
inactive: [11] -0.039 | vorinostat 0.307

GORAB (UniProt Q5T7V8)
inactive: bafetinib 0.127 | nilotinib -0.313 | [1] -0.097 | dasatinib 0.168 | [2] 0.005 | [4] 0.061 | tipifarnib -0.069 | [5] 0 | [8] -0.026 | entinostat 0.114 | citarinostat -0.141 | [9] 0.165

GRK6 isoform 2 (UniProt P43250)
inactive: dasatinib -0.107 | [8] -0.077

GMIP (UniProt Q9P107)
inactive: bafetinib 0.082 | nilotinib 0.013 | [1] 0.008 | dasatinib -0.394 | [2] -0.079 | [3] 0.104 | [4] -0.02 | [5] 0.017 | entinostat 0.185 | [10] 0.053

Quoted from the entries so far (two entries):
GRK6 isoform 2 (UniProt P43250)
inactive: dasatinib -0.107 | [8] -0.077

GMIP (UniProt Q9P107)
inactive: bafetinib 0.082 | nilotinib 0.013 | [1] 0.008 | dasatinib -0.394 | [2] -0.079 | [3] 0.104 | [4] -0.02 | [5] 0.017 | entinostat 0.185 | [10] 0.053

Remaining list, next part

GNL3L (UniProt Q9NVN8)
inactive: [11] -0.009 | vorinostat 0.157

GP6 isoform 3 (UniProt Q9HCN6)
inactive: bafetinib 0.256 | [3] -0.09 | mubritinib 0.015 | [7] -0.232 | silmitasertib 0.238

GPAT3 (UniProt Q53EU6)
inactive: bafetinib -0.042 | nilotinib 0.036 | [1] 0.153 | dasatinib -0.004 | [2] 0.036 | [3] -0.005 | [4] -0.007 | tipifarnib 0.023 | mubritinib -0.006 | [5] 0.224 | [6] 0.153 | [7] 0.04 | [8] 0.142 | entinostat -0.138 | citarinostat 0.016 | silmitasertib 0.026 | [10] -0.155 | [9] -0.057

GOLPH3L (UniProt Q9H4A5)
inactive: [11] -0.122 | mubritinib -0.225 | [5] -0.09 | [6] -0.057 | [7] 0.142 | [8] -0.158 | entinostat 0.031 | vorinostat 0.405 | silmitasertib 0.206 | [10] 0.323

GJA1 (UniProt P17302)
inactive: bafetinib -0.136 | [11] 0.234 | vorinostat -0.015

GLMP (UniProt Q8WWB7)
inactive: nilotinib 0.077 | [1] 0.023 | dasatinib 0.062 | [2] 0.017 | [3] 0.317 | [4] 0.005 | tipifarnib -0.002 | mubritinib -0.004 | [5] -0.047 | [6] 0.024 | [7] 0.017 | [8] -0.113 | entinostat -0.044 | citarinostat -0.109 | silmitasertib 0.168 | [10] -0.033 | [9] -0.294

GPT2 (UniProt Q8TD30)
inactive: [11] 0 | dasatinib -0.268 | [3] 0.107 | tipifarnib -0.175 | mubritinib 0.013 | [6] 0.005 | [7] 0.445 | [8] -0.06 | vorinostat 0.116 | silmitasertib -0.085

GORASP1 (UniProt Q9BQQ3)
inactive: dasatinib -0.06 | [3] 0.052 | tipifarnib 0.006 | citarinostat -0.093 | [10] 0.16 | [9] -0.096

GNL2 (UniProt Q13823)
inactive: bafetinib 0.275 | [11] 0.079 | [4] -0.036 | mubritinib 0.03 | [7] -0.293 | vorinostat -0.002 | citarinostat -0.147 | silmitasertib -0.101 | [10] 0.08 | [9] -0.279

GPS2 (UniProt Q13227)
inactive: bafetinib -0.157 | nilotinib 0 | [1] -0.045 | [2] -0.074 | [4] 0.02 | tipifarnib -0.033 | mubritinib -0.059 | [5] 0.041 | [7] 0.079 | [8] -0.106 | entinostat -0.015 | citarinostat -0.023 | silmitasertib 0.031 | [10] -0.005 | [9] -0.092

Reprinted at random: 2 records from the list
GPC4 (UniProt O75487)
inactive: [11] -0.039 | vorinostat 0.307

GPAT3 (UniProt Q53EU6)
inactive: bafetinib -0.042 | nilotinib 0.036 | [1] 0.153 | dasatinib -0.004 | [2] 0.036 | [3] -0.005 | [4] -0.007 | tipifarnib 0.023 | mubritinib -0.006 | [5] 0.224 | [6] 0.153 | [7] 0.04 | [8] 0.142 | entinostat -0.138 | citarinostat 0.016 | silmitasertib 0.026 | [10] -0.155 | [9] -0.057

More records follow.

GPAM (UniProt Q9HCL2)
inactive: [11] -0.137 | nilotinib 0.154 | [1] 0.157 | [2] -0.219 | [4] -0.035 | tipifarnib -0.047 | [5] 0 | [6] 0.135 | entinostat 0.028 | vorinostat 0.039 | [10] -0.144

GOLM1 (UniProt Q8NBJ4)
inactive: bafetinib -0.009 | nilotinib 0.117 | [1] 0.128 | [2] 0.043 | [3] 0.211 | [4] -0.119 | tipifarnib -0.084 | mubritinib -0.093 | [5] 0.08 | [7] -0.001 | [8] 0.054 | entinostat -0.016 | citarinostat -0.207 | silmitasertib 0.156 | [9] 0.053

GPNMB (UniProt Q14956)
inactive: citarinostat -0.125 | [10] -0.015 | [9] 0.727

GPR108 (UniProt Q9NPR9)
inactive: bafetinib -0.018 | nilotinib 0.088 | [1] -0.025 | dasatinib 0.045 | [2] -0.027 | [3] 0.03 | [4] -0.003 | tipifarnib 0.04 | mubritinib 0.03 | [5] -0.044 | [6] 0.032 | [7] -0.114 | [8] -0.074 | entinostat -0.022 | citarinostat -0.004 | silmitasertib 0.022 | [10] -0.02 | [9] -0.083

GNG12 (UniProt Q9UBI6)
inactive: [11] -0.257 | vorinostat -0.029

GSE1 (UniProt Q14687)
inactive: bafetinib 0.305 | nilotinib 0.034 | [1] 0.004 | dasatinib -0.453 | [2] -0.096 | [3] -0.009 | [4] 0.012 | [8] -0.044

GIGYF1 (UniProt O75420)
inactive: [11] 0.132 | [3] -0.108 | [4] -0.23 | tipifarnib -0.058 | [5] -0.152 | entinostat 0.072 | vorinostat 0.088 | [10] -0.032

GLE1 (UniProt Q53GS7)
inactive: dasatinib 0.025 | [3] -0.338 | [6] 0.059

GIT1 isoform 3 (UniProt Q9Y2X7)
inactive: dasatinib -0.113 | [3] -0.067 | [4] 0.273 | tipifarnib -0.003 | mubritinib -0.101 | [5] -0.004 | [6] -0.08 | [7] -0.116 | entinostat 0.147 | citarinostat 0.08 | silmitasertib 0.068 | [10] -0.029 | [9] -0.03

GLCE (UniProt O94923)
inactive: bafetinib -0.059 | nilotinib -0.012 | [1] -0.077 | [2] 0.169 | [3] 0.038 | tipifarnib 0.143 | [5] 0.031 | entinostat -0.046

GOSR1 (UniProt E9PCW1)
inactive: bafetinib -0.19 | dasatinib -0.017 | [3] 0.02 | tipifarnib -0.204 | mubritinib -0.158 | [7] -0.117 | citarinostat 0.077 | silmitasertib -0.101 | [9] -0.143

GPCPD1 (UniProt Q9NPB8)
inactive: [11] 0.272 | dasatinib -0.222 | [3] -0.011 | [4] -0.036 | tipifarnib -0.021 | mubritinib 0.143 | [5] 0.181 | [7] -0.162 | entinostat 0.042 | vorinostat 0.239 | citarinostat 0.047 | silmitasertib 0.039 | [10] -0.176 | [9] -0.009

GLS2 (UniProt Q9UI32)
inactive: [3] 0.067 | [6] 0.005

GOLGA1 (UniProt Q92805)
inactive: [11] -0.076 | dasatinib -0.032 | [4] 0.091 | tipifarnib -0.01 | [6] -0.057 | [8] -0.1 | vorinostat -0.042

GPATCH1 (UniProt Q9BRR8)
inactive: dasatinib 0.029 | [3] -0.118 | tipifarnib 0.069 | [5] 0.195 | [8] -0.193 | entinostat 0.153 | citarinostat 0.073 | [10] 0.083 | [9] -0.017

GPSM3 (UniProt Q9Y4H4)
inactive: nilotinib 0.131 | [1] -0.054 | dasatinib -0.206 | [2] -0.08 | [3] 0.075 | tipifarnib -0.018 | mubritinib 0.093 | [5] -0.028 | [6] 0.149 | [7] 0.099 | [8] 0.058 | entinostat 0.078 | citarinostat 0.006 | silmitasertib 0.152 | [9] -0.009

GON4L (UniProt Q3T8J9)
inactive: bafetinib -0.063 | nilotinib 0.227 | [1] 0.061 | dasatinib -0.01 | [2] 0.033 | [3] 0.053 | tipifarnib -0.01 | mubritinib 0.077 | [5] -0.03 | [6] -0.076 | [7] 0.101 | entinostat -0.039 | citarinostat 0.326 | silmitasertib 0.094 | [10] -0.031 | [9] -0.118

GIT2 (UniProt Q14161)
inactive: bafetinib -0.19 | nilotinib -0.247 | [1] -0.118 | dasatinib -0.151 | [2] 0.151 | [3] -0.087 | tipifarnib -0.147 | mubritinib 0.06 | [6] 0 | [7] -0.06 | silmitasertib -0.018 | [10] 0.15

GPR68 (UniProt Q15743)
inactive: [4] 0.133 | [6] -0.044

GRAMD1A (UniProt Q96CP6)
inactive: bafetinib -0.103 | [10] 0.083

GREB1 (UniProt Q4ZG55)
inactive: [3] 0.046 | [5] 0.029 | [6] -0.103 | [8] -0.002 | entinostat 0.012 | [10] 0.036
